Test results taken from PubChem BioAssay AID2284167 (EPA ToxCast).
Inconclusive results, whose numbers are uncertain, are shown with a selection of clear calls. A potency beside an inconclusive call is a rough fit, not a confirmed value. Activity calls are given as the source filed them. How the source made its calls: active means hit-call score of the fitted dose curve at least 0.9, where 1 is the maximum; inconclusive means response in the unintended direction; inactive means score below 0.9.

Amino acid sequences for entries named in this document (tags omitted).
UniProt P30989, whole entry, looked up: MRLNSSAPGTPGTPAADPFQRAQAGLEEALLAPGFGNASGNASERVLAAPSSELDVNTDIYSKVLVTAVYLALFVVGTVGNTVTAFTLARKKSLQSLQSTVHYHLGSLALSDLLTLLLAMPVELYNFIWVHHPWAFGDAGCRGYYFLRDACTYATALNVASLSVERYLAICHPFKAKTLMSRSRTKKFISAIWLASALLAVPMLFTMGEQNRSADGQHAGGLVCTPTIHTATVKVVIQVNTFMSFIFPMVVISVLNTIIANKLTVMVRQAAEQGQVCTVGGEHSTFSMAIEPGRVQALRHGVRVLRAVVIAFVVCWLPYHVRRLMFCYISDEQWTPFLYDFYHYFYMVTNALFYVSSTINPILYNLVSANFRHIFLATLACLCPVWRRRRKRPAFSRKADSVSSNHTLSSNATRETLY

biological target: human Neurotensin Receptor NT1 Agonism, NTSR1 (gene 4923) (UniProt P30989); experiment: ERF_FR_GPCR_hNTSR1: Eurofins (ERF) G Protein-Coupled Receptor (GPCR) Radioligand Binding LeadHunter Assay for human Neurotensin Receptor NT1 Agonism
Method: ERF_FR_GPCR_hNTSR1 is a biochemical, single-readout assay that uses extracted gene-proteins in a cell-free assay. Measurements were taken 1 hour after chemical dosing in a 96-well plate. See NT1 Human Neurotensin GPCR Binding (Agonist Radioligand) Assay, Cerep.ERF_FR_GPCR_hNTSR1 is an assay component calculated from the ERF_FR_GPCR_hNTSR1 assay. It is designed to measure radioligand binding using a type of binding reporter as detected by scintillation counting with radiometry technology.Data from the assay component ERF_FR_GPCR_hNTSR1 was analyzed at the assay endpoint, ERF_FR_GPCR_hNTSR1, in the positive analysis fitting direction relative to DMSO as the negative control and baseline of activity. Using a type of binding reporter, gain-of-signal activity can be used to understand changes in binding as they relate to gene NTSR1. To generalize the intended target to other relatable targets, this assay endpoint is annotated to the gpcr intended target family, where the subfamily is neurotensin.
Human cells are incubated for 60 minutes at 4 C with [125I]Tyr3-neurotensin ligand (0.05 nM) and neurotensin as control inhibitor. Test Sample Requirements: Minimum for 1) Screen: 60 ul of 10 mM stock -OR- 1 mg (pre-weighed) for 10 uM final testing. 2) Dose Response: 90 ul of 10 mM stock -OR- 1 mg (pre-weighed) for a top concentration at 10 uM.

| Structure (SMILES) | AC50 |
| --- | --- |
| CCCCC[C@H](O)CC(=O)CCc1ccc(O)c(OC)c1 | inconclusive: 5 µM |
| COc1cc(CCC(=O)CC(=O)CCc2ccc(O)c(OC)c2)ccc1O | inconclusive: 0.992 µM |
| COc1cc(/C=C/C(=O)CC(=O)/C=C/c2ccc(O)c(OC)c2)ccc1O | inconclusive: 0.0741 µM |
| O=C(/C=C/c1ccc(O)cc1)CC(=O)/C=C/c1ccc(O)cc1 | active: 2.99 µM |
